Experimental data published in PubChem BioAssay AID2685 (National Center for Advancing Translational Sciences (NCATS), 2010).
The list shows a part of the results. Shown are side measurements of this screen, not its main read-out; they come without a call. Most of these compounds were active or inconclusive in the main read-out, so they are no random draw. Potencies come from curve fits of mixed quality, noted in brackets.

Assay: qHTS Assay for Lipid Storage Modulators in Drosophila S3 Cells;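 for cell number change: cells counted by Cell Tracker Red CMTPX staining in the red channel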
Settings: BODIPY lipid droplet fluorescence, 18-24 h; for cell number change: measured here: cell count max response, cells fed with added oleic acid
Summary of the method: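 Laser-scanning cytometry quantifies lipid droplet accumulation (500–530 nm total intensity; droplet/cell object ratio) in oleic acid-fed (400 uM added) Drosophila S3 cells treated with a concentration series. 20 uM Triacsin C defined 100% inhibition.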

[1] = measured here: lipid fluorescence (Fed channel) AC50, cells fed with added oleic acid
[2] = measured here: cell number channel AC50, cells fed with added oleic acid

SMILES	cell number change [%]	AC50 [1]	AC50 [2]
CCOc1cc(C2NC(=O)c3ccccc3O2)ccc1OC(C)C (stereo not drawn)	4.62		
CC(C)C(NC(=O)c1ccco1)C(=O)NCC(c1ccco1)N(C)C (stereo not drawn)	6.95		
O=C(O)C1CCCCC1C(=O)Nc1ccccc1C(=O)N1CCN(c2ccc(F)cc2)CC1 (stereo not drawn)	-16.7	29.1 µM [rising, single point]	
CCOC(=O)Cc1csc(SCC(=O)N(CC(C)C)c2c(N)n(Cc3ccccc3)c(=O)[nH]c2=O)n1		18.4 µM [rising, single point]	
CCCCCN1CC(O)=C(c2ccccc2)C1=N	16.9	4.61 µM [rising, partial curve]	
CCC1CCCCN1CCNC(=O)C1CCCN(S(=O)(=O)c2cccc3nsnc23)C1 (stereo not drawn)	-8.94	29.1 µM [rising, single point]	
Cc1n[nH]c(=O)c2c1nnn2Cc1ccccc1Cl	-4.23	5.8 µM [falling, single point]	
CCOc1ccc(N2CC(C(=O)NCc3ccccc3)CC2=O)cc1 (stereo not drawn)	-30.5	29.1 µM [falling, single point]	29.1 µM [falling, single point]
Cc1c(C#N)c2ccccc2n1CC(=O)NCC1CCCO1 (stereo not drawn)	11.1	6.51 µM [rising, single point]	
COc1cc2c(cc1OC)C(COc1ccc([N+](=O)[O-])cc1)NCC2 (stereo not drawn)	20.8		
COC(=O)c1sccc1-c1ccc(/C=N/OCc2c(Cl)cccc2Cl)o1	28.2	29.1 µM [rising, single point]	1.64 µM [rising, full curve, poor fit]
O=C1NCCN(Cc2ccc(-c3ccccc3)cc2)C1CC(=O)N1CCN(CCO)CC1 (stereo not drawn)	12.1	9.2 µM [rising, partial curve, poor fit]	
C=CCSc1nc(N)c(C#N)c(-c2ccc(C)cc2)c1C#N		0.92 µM [rising, full curve]	1.3 µM [rising, full curve]
CC1CC(C)CN(CC(=O)NCCc2ccc(S(N)(=O)=O)cc2)C1 (stereo not drawn)	-7.82	0.082 µM [falling, partial curve, poor fit]	
Cc1ccc(CCN2CC(C(=O)NCCN3CCOCC3)CC2=O)cc1 (stereo not drawn)	-22.5	32.6 µM [falling, single point]	
COc1ccccc1N1CCN(C(=O)Cc2c(C(=O)O)[nH]c3ccc(Cl)cc23)CC1	-32.2	0.13 µM [falling, full curve, poor fit]	0.13 µM [falling, full curve]
CC(C)n1cc(CN2CCC(n3nccc3NC(=O)Cc3ccccc3)CC2)cn1	19.6	0.092 µM [rising, full curve, poor fit]	

Three entries out of the list, arranged by count of non-hydrogen atoms, ascending:
SMILES	cell number change [%]	AC50 [1]	AC50 [2]
CC1CC(C)CN(CC(=O)NCCc2ccc(S(N)(=O)=O)cc2)C1 (stereo not drawn)	-7.82	0.082 µM [falling, partial curve, poor fit]	
COC(=O)c1sccc1-c1ccc(/C=N/OCc2c(Cl)cccc2Cl)o1	28.2	29.1 µM [rising, single point]	1.64 µM [rising, full curve, poor fit]
CCOC(=O)Cc1csc(SCC(=O)N(CC(C)C)c2c(N)n(Cc3ccccc3)c(=O)[nH]c2=O)n1		18.4 µM [rising, single point]	
